# Measured values from PubChem BioAssay AID504648 (National Center for Advancing Translational Sciences (NCATS), 2011).
# Screen size: about 390,000 compounds; about 610 (0.16%) were called active. The inconclusive results got no clear call from the source; some entries with a clear call stand among them for comparison. The call rests on the fitted dose curve; in most records, active means well fitted inhibition curve with a large enough effect; inconclusive means small, poorly fitted or top-dose-only effect, or effect the other way, or another doubt; inactive means no such curve, though single readings can be large or run the other way. Where the call is inconclusive, the potency comes from a doubtful curve fit.
# Experiment: Nrf2 qHTS screen for inhibitors: counterscreen for cytotoxicity
# Settings: A549 ARE-Fluc cells, CellTiter-Fluor viability, 18-24 h; activity change, negative = cytotoxicity: at 46 µM (top of the series)
# Excerpt: NIH Molecular Libraries Probe Production Network [MLPCN]
# NIH Chemical Genomics Center [NCGC]
# Assay Provider: Shyam Biswal, Johns Hopkins University
# Nrf2 is a transcription factor that maintains cellular redox homoestasis and protects cells from xenobiotics. Nrf2 binds to the antioxidant response element (ARE) to induce gene expression of a broad spectrum of genes that encode for antioxidants. […] Finding a small molecule that act as an inhibitor of Nrf2 function would represent a novel therapeutic target that could lead to improvement in survival of patients undergoing chemo- and/or radio- therapy.
# So here we implemented a counterscreen to weed out the cytotoxic compounds.
# 1. Shibata, T., et al., Genetic Alteration of Keap1 Confers Constitutive Nrf2 Activation and Resistance to Chemotherapy in Gallbladder Cancer. Gastroenterology, 2008.
# 2. Sjoblom, T., et al., The consensus coding sequences of human breast and colorectal cancers. Science, 2006. 314(5797): p. 268-74.
# NCGC Assay Protocol Summary:
# A concentration-response assay was performed with A549 ARE_Fluc cells which are suspended in 5% FBS OPTI-MEM. Five uL were dispensed into 1536-well white TC-treated plate using the Kalypsys dispenser to achieve a density of 5000 cells/well in all columns except column 1. The plate is incubated at 37deg C at 5% CO2 for 2 hours before 23 nL of compounds are added with the Kalypsys pin tool equipped with a 1,536-pin array containing 10-nL slotted pins (FP1S10, 0.457-mm diameter, 50.8 mm long; V&P Scientific). The control compounds Budesonide and Staurosporine are both added at a concentration of 2mM and Budesonide is also added as a 1:10 titration, starting at 200uM, to achieve dose-response. After an 18-24 hour incubation at 37deg C at 5% CO2, 5ul of medium is added to column 1. Afterwards 1ul of 5x of CellTiter-Fluor (Promega) is added to every well. The plate is then incubated at 37deg C at 5% CO2 for 30 minutes before they are read on the ViewLux (Perkin Elmer) for a fluorescent read Ex=405(10)/Em=525(10) for a 3 second exposure, 2x binning, and high gain. Then 3 uL of 3x BugLite is dispensed into all wells and the plate is incubated at ambient room temperature for 15 minutes. Afterwards another ViewLux read is performed using the clear filter to get a luminescent read with the settings of 40 second exposure, 2x binning, and high gain. Cytotoxicity is assessed through the first fluorescent read and then biochemical activity against Nrf2 is measured in the luminescent read.
# On the % scale 0 is the no-effect control and ±100 the full control effect; potency means the concentration at half of the fitted maximal effect.
Compound,Potency,"activity change, negative = cytotoxicity"
COCC(=O)N/N=C/c1c(C)[nH]n(-c2ccccc2)c1=O,"inconclusive: 16.4 µM [falling, single point]",
CC(=O)c1cccc(NC(=O)c2ccc3c(c2)CCCC3)c1,,inactive: -9.58%
O=C(CSc1nc2ccccc2o1)N1N=C(c2cccs2)CC1c1ccc(F)cc1 (stereo not drawn),,inactive: -1.91%
COc1ccc(COC(=O)NC2CCN(S(=O)(=O)c3ccc(OC)cc3)CC2)cc1,,inactive: 1.84%
Cc1cc(NC(=O)Cc2ccccc2[N+](=O)[O-])no1,,inactive: -2.22%
Cc1cc(C)cc(OC(=O)c2cc(-c3ccc4c(c3)OCCO4)on2)c1,,inactive: 0.531%
Cc1ccccc1/C=c1\s/c(=C\C(=O)C(C)(C)C)[nH]c1=O,"inconclusive: 20.6 µM [falling, partial curve, poor fit]",
O=C(NC(=S)NCCC1=CCCCC1)c1ccco1,,inactive: 0.207%
CCCSc1ncc(Cl)c(C(=O)Nc2ccc(OC)cc2OC)n1,"inconclusive: 13 µM [falling, partial curve, poor fit]",
COc1ccc(N/N=C(\C#N)C(N)=O)cc1,"inconclusive: 23.1 µM [falling, partial curve, poor fit]",
OCc1cn(-c2ccccc2)nc1-c1cc2ccccc2o1,,inactive: -1.07%
COc1ccccc1C(=O)Nc1ccccc1SC(=O)c1ccccc1OC,"inconclusive: 25.9 µM [falling, single point]",
O=C(CNC(=O)c1ccc(Br)o1)NNC(=O)c1ccccc1,,inactive: -9.88%
O=C(N/N=C/c1ccc(Cl)cc1)c1sccc1OCc1ccc(F)cc1,"inconclusive: 1.3 µM [falling, partial curve, poor fit]",
CCOC(=O)C1C(C#N)=C(N)OC(C)=C1c1ccncc1 (stereo not drawn),,inactive: -2.42%
COc1ccc(C(=O)Nc2cccc3cccnc23)cc1OC,"inconclusive: 2.59 µM [activator, full curve, poor fit]",
O=S(=O)(Nn1c(O)c(C=C2N=c3ccccc3=N2)sc1=S)c1ccccc1,"inconclusive: 23.1 µM [falling, partial curve, poor fit]",
CCc1ccccc1N1CC(c2nc3ccccc3n2CCCCOc2ccccc2OC)CC1=O (stereo not drawn),"inconclusive: 18.4 µM [falling, single point]",
CCOc1ccc(NS(=O)(=O)c2ccc3[nH]cc(C(=O)N4CCCC4)c(=O)c3c2)cc1,"inconclusive: 14.6 µM [activator, partial curve, poor fit]",
COC(=O)Nc1ccc(S(=O)(=O)Nc2cccc3ccccc23)cc1,"inconclusive: 23.1 µM [falling, partial curve, poor fit]",
Fc1ccc(Nc2nc(SCc3ccc(Cl)cc3)nc3ccccc23)cc1,"inconclusive: 29.1 µM [falling, partial curve, poor fit]",
N#C/C(=C\c1cccc(O)c1)C(=O)N1CCCCC1,,inactive: 1.08%
COc1ccccc1Nc1nc(-c2c(C)nc3ncccn23)cs1,"inconclusive: 18.4 µM [falling, single point]",

# Quoted from the listing:
# `COc1ccccc1C(=O)Nc1ccccc1SC(=O)c1ccccc1OC` – Potency: inconclusive: 25.9 µM [falling, single point]
# `O=C(CNC(=O)c1ccc(Br)o1)NNC(=O)c1ccccc1` – activity change, negative = cytotoxicity: inactive: -9.88%
# `OCc1cn(-c2ccccc2)nc1-c1cc2ccccc2o1` – activity change, negative = cytotoxicity: inactive: -1.07%
# `CC(=O)c1cccc(NC(=O)c2ccc3c(c2)CCCC3)c1` – activity change, negative = cytotoxicity: inactive: -9.58%

# Going on with the list:

Compound,Potency,"activity change, negative = cytotoxicity"
COc1cnc(-c2ccccn2)nc1NC(C)C,"inconclusive: 14.6 µM [falling, partial curve]",
C=CC[C@H](CC(=O)N(CCO)Cc1ccccc1)C(=O)N[C@H](COC(=O)[C@@H](CC=C)CC(=O)OC(C)(C)C)Cc1ccccc1,"inconclusive: 23.1 µM [falling, partial curve, poor fit]",
CCCN1C(C)C(C(=O)OCC)=CN(Cc2cccc(I)c2)S1(=O)=O (stereo not drawn),"inconclusive: 29.1 µM [activator, partial curve, poor fit]",
Nc1nc(SCC(=O)N2CCc3ccccc32)[nH]c(=O)c1-c1ccccc1,"inconclusive: 18.4 µM [falling, single point]",
CC(=O)NCc1ccc(C(=O)CCl)s1,,inactive: 5.01%
Cc1cccc(OCC(=O)Nc2ccc(OCc3cc(=O)n4cc(C)ccc4n3)cc2)c1,,inactive: 1.83%
O=C(OCn1nnc2ccccc2c1=O)C1CCCCC1,,inactive: 1.68%
CCOc1ccccc1CNC(=O)C1CCN(c2nnc(C)c3c(C)n(-c4ccc(C)cc4)nc23)CC1,"inconclusive: 23.1 µM [falling, single point]",
COC(=O)CCC/C=C1/SCC(NC(=O)c2ccccc2)C1O (stereo not drawn),,inactive: -5.89%
Fc1ccccc1-n1ncc2c1ncn1nc(COc3ccc(Cl)cc3)nc21,,inactive: 0.548%
Cc1nn(CCC(=O)NCCc2ccccc2Cl)c(=O)c2nn(-c3ccccc3)c(C)c12,"inconclusive: 18.4 µM [activator, single point]",
NC(=O)[C@@H]1CCNc2c(I)cc([N+](=O)[O-])cc2C(=O)N[C@@H](CCC(=O)O)C(=O)N[C@@H](CO)C(=O)N1,"inconclusive: 16.4 µM [falling, single point]",
Cc1cc(C)cc(C(=O)N(Cc2ccco2)c2c(N)n(Cc3ccccc3)c(=O)[nH]c2=O)c1,,inactive: -6.35%
COc1ccccc1NC(=O)c1sc2nc(C)c(C(=O)Nc3ccc(Cl)cc3)c(-c3ccc(Br)cc3)c2c1N,"inconclusive: 8.2 µM [activator, partial curve]",
Cc1ccccc1CN1CCC(CNC(=O)c2cc3ccc4cccnc4c3[nH]2)CC1,"inconclusive: 16.4 µM [falling, partial curve, poor fit]",
COc1cccc(-c2nc(SCC(=O)Nc3ccc4c(c3)OCO4)c(-c3ccccc3)[nH]2)c1,"inconclusive: 18.4 µM [falling, single point]",
O=C(NNS(=O)(=O)c1cccc(Cl)c1)c1cc(-c2ccc(F)cc2)nc2ccccc12,,inconclusive: -69.8% [activator]
CCN1CCN(C(=O)CCNC(=O)Cn2ccc3ccccc3c2=O)CC1,"inconclusive: 29.1 µM [activator, single point]",
Cc1cc(/C=C2/C(=N)N3C(=NC2=O)SN=C3S(C)(=O)=O)c(C)n1-c1ccc(F)cc1,"inconclusive: 29.1 µM [falling, partial curve, poor fit]",
CC(C)CC(=O)NC(c1ccccc1Cl)c1c(O)ccc2ccccc12 (stereo not drawn),"inconclusive: 29.1 µM [falling, single point]",
Cc1noc(C)c1COC(=O)c1cccc(S(=O)(=O)N2CCCCCC2)c1,,inactive: -11.7%
Cc1ccc(S(=O)(=O)Nc2ccc(NC(=O)Nc3ccc(F)cc3F)cc2)cc1,"inconclusive: 25.9 µM [falling, single point]",
COc1cc(C)c(C(=O)CC(=O)c2c(C)cc(OC)cc2C)c(C)c1,,inactive: 1.38%

Compound,Potency,"activity change, negative = cytotoxicity"
CCCCC(=O)c1c(O)c2ccccc2oc1=O,"inconclusive: 29.1 µM [falling, single point]",
COc1cc(/C=C/C(=O)c2ccc(NS(=O)(=O)c3ccc(C)cc3)cc2)cc(OC)c1O,"inconclusive: 29.1 µM [falling, single point]",
O=C(N/N=C/c1sc(N2CCOCC2)nc1-c1ccccc1)c1cccc(S(=O)(=O)N2CCOCC2)c1,"inconclusive: 7.31 µM [falling, partial curve]",
COc1ccccc1Nc1nc(N)nc(CN2CCN(c3ccccc3)CC2)n1,"inconclusive: 2.06 µM [activator, partial curve]",
Cc1ccc(S(=O)(=O)N2[C@@H](c3ccc(C(C)(C)C)cc3)C(C(=O)O)=CC[C@H]2c2ccc(C(C)C)cc2)cc1,"inconclusive: 5.8 µM [falling, partial curve]",
C(=C\c1ccccc1)/C=N/Nc1nc2ccccc2[nH]1,"inconclusive: 29.1 µM [falling, partial curve, poor fit]",
CCC(C)NC(=O)C(=O)NCc1ccccn1 (stereo not drawn),"inconclusive: 13 µM [activator, partial curve, poor fit]",
CC(=O)Nc1ccc(S(=O)(=O)Nc2cccc(-c3ccc(N4CCC(C)CC4)nn3)c2)cc1,"inconclusive: 29.1 µM [falling, single point]",
COc1ccccc1Oc1nc2c(c(=O)n(C)c(=O)n2C)n1Cc1cccc(Br)c1,,inactive: -0.219%
O=C1CN(S(=O)(=O)c2ccc3c(c2)OCCO3)CCN1S(=O)(=O)c1c(F)cccc1F,,inactive: -4.79%
C=CCNc1nc(-c2c(C)nc3ncccn23)cs1,,inactive: -3.2%
CCCS(=O)(=O)c1ncc(Cl)c(C(=O)N(Cc2ccccc2)Cc2ccco2)n1,"inconclusive: 20.6 µM [falling, single point]",
CCOc1ccc(-c2oc3ccccc3c(=O)c2O)cc1OCC,,inactive: -1.82%
COc1ccc(S(=O)(=O)NCCSCc2ccc(Cl)cc2)cc1NC(C)=O,,inactive: -7.73%
CCn1c(=O)cc(SCC(=O)Nc2cc(OC)c(OC)c(OC)c2)c2ccccc21,,inactive: -12.2%
Cn1c(=O)c2c(nc(SCC(=O)Nc3ccc(OC(F)(F)F)cc3)n2Cc2cccc(C(F)(F)F)c2)n(C)c1=O,"inconclusive: 16.4 µM [falling, single point]",
CCc1nn(CC(=O)NCCc2ccc(OC)cc2OC)c(=O)c2cc3sccc3n12,,inactive: 11.3%
CCc1ccc(/C(C)=N\Nc2ccc([N+](=O)[O-])cc2)cc1,"inconclusive: 29.1 µM [falling, partial curve, poor fit]",
CCOc1ccc(S(=O)(=O)N2CCC(C(=O)N3CCc4ccccc4C3)CC2)cc1,"inconclusive: 32.6 µM [falling, partial curve, poor fit]",
O=C(Cn1c(=O)n(-c2ccc(F)cc2)c(=O)c2sc3ccccc3c21)N1CCCC1,,inactive: -15.3%
CC(C)c1ccc2c(c1)C1Cc3ccccc3C1N2 (stereo not drawn),"inconclusive: 20.6 µM [falling, single point]",
Cc1ccc(CSC2=Nc3ccccc3C3=NC(CCC(=O)N4CCN(c5ccccc5)CC4)C(=O)N23)cc1 (stereo not drawn),"inconclusive: 25.9 µM [falling, partial curve, poor fit]",
